Common to all, as to experiment: log2 fold change, soluble protein after heating vs DMSO (PISA); higher = thermal stabilisation; K562 lysate, 10 uM; active = over 0.2 and 3.5 SD of the protein, either way, in both replicates (recomputed)
Compound in assay [1]: CS(=O)(=O)CCNCc1ccc(-c2ccc3ncnc(Nc4ccc(OCc5cccc(F)c5)c(Cl)c4)c3c2)o1 [lapatinib]
The method, boiled down:
(§1)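 Values give the log-two fold change in thermal stability against solvent controls, from duplicates. Crude K562 extract at 1 mg/mL protein, made by dounce homogenisation in PBS pH 7.4 with 1 mM MgCl2, was treated with 10 μM compound for 30 min. After 3 min heating across 48°C-58°C, aliquots were pooled, adjusted to 0.5% NP-40 at 4°C and centrifuged at 21,000xg for 90 min. The supernatant was measured by TMTpro 16plex LC-MS/MS with channel sums equalised.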

Sequences of proteins named here, by UniProt entry; tags and fusion partners are left off. A change or cut given only in a name is not applied to a line headed by its entry.
UniProt P54098: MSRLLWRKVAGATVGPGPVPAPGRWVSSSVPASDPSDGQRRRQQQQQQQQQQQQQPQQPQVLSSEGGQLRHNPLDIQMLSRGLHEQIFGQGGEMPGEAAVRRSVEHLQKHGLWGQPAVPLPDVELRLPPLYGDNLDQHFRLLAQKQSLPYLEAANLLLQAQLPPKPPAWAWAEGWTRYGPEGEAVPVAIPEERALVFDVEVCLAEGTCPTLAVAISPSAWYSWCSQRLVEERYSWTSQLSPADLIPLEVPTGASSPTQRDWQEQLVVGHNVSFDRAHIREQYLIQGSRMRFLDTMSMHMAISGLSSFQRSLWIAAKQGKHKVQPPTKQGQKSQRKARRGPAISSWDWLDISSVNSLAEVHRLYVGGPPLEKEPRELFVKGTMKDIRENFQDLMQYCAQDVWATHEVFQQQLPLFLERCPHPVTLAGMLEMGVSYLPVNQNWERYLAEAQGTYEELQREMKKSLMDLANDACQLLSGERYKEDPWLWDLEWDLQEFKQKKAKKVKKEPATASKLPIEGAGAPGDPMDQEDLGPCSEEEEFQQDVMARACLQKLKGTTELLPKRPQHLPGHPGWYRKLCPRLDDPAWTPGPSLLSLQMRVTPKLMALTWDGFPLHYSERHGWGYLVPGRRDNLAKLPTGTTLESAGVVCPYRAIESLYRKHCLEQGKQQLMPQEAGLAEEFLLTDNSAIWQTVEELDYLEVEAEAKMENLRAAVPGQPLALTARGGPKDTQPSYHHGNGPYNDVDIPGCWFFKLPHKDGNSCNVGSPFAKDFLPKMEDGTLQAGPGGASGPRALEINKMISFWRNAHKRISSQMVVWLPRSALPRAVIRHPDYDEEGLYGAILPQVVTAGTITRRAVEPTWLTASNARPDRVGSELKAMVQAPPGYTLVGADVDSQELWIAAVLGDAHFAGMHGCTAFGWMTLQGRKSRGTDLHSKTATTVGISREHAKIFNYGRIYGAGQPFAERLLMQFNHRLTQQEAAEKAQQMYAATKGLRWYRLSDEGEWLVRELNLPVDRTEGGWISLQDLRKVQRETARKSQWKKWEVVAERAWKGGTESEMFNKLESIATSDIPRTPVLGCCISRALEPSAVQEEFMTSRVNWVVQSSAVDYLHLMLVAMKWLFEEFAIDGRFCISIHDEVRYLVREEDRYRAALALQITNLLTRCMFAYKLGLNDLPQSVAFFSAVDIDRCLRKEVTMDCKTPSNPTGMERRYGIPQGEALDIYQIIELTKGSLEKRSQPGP
UniProt Q8ND30: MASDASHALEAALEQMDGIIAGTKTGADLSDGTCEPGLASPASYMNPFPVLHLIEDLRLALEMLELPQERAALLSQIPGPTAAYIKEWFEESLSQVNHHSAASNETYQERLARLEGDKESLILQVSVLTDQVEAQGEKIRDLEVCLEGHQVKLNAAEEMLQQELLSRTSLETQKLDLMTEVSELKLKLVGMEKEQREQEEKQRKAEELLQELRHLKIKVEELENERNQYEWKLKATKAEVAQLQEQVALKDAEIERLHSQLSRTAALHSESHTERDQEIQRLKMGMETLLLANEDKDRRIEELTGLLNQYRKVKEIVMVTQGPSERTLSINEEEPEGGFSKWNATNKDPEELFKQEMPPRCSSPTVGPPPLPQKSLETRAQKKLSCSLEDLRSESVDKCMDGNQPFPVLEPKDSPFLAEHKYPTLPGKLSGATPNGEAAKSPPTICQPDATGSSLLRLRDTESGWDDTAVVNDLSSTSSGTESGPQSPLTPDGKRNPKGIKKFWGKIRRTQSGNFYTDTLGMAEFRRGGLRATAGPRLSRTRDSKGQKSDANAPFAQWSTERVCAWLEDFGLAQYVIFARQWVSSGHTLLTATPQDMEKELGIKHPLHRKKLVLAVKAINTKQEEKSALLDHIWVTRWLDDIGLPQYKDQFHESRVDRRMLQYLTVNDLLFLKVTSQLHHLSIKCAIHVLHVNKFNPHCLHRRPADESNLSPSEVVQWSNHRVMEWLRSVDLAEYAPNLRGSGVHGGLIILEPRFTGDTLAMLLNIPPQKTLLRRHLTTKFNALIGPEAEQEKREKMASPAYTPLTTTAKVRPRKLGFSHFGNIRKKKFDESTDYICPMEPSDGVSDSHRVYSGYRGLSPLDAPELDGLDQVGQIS
UniProt P41247: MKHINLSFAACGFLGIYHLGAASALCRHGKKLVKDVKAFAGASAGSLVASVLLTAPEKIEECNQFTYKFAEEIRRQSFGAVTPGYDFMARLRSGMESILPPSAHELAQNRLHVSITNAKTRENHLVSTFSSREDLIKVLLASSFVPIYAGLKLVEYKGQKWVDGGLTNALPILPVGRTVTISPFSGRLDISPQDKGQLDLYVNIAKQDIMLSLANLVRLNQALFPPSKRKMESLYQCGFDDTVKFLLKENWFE
UniProt Q8IY26: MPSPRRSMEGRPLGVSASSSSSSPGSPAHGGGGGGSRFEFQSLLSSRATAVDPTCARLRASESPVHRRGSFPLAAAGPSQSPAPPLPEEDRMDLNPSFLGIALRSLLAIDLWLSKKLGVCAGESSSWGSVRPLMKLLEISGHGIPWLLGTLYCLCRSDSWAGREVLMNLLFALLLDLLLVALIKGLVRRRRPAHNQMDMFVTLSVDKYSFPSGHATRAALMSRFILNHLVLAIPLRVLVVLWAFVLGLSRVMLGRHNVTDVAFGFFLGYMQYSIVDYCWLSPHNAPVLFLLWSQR

Compound in assay [2]: CS(=O)(=O)N1CCN(Cc2cc3nc(-c4cccc5[nH]ncc45)nc(N4CCOCC4)c3s2)CC1 [pictilisib]
The method, boiled down: as §1

Compound in assay [3]: C[C@@H](Oc1cc(-c2cnn(C3CCNCC3)c2)cnc1N)c1c(Cl)ccc(F)c1Cl [crizotinib]
The method, boiled down:
as §1

Compound in assay [4]: C[C@H](C1=CC=C(C=C1)C(=O)NC2=C3C=CNC3=NC=C2)N
Put shortly: as §1

Compound in assay [5]: C[C@H](Nc1ncnc2nc[nH]c12)c1cc2cccc(Cl)c2c(=O)n1-c1ccccc1 [duvelisib]
Put shortly: as §1

Compound in assay [6]: Cc1cc(Nc2cc(CN3CCOCC3)c3nc(C)c(Cc4ccc(Cl)cc4F)n3n2)n[nH]1 [gandotinib]
Put shortly: as §1

Compound in assay [7]: Cc1cc(Nc2cc(N3CCN(C)CC3)nc(Sc3ccc(NC(=O)C4CC4)cc3)n2)n[nH]1 [tozasertib]
The method, boiled down:
as §1

Compound in assay [8]: Cc1ccc(-n2nc(C(C)(C)C)cc2NC(=O)Nc2ccc(OCCN3CCOCC3)c3ccccc23)cc1 [doramapimod]
Put shortly:
as §1

Compound in assay [9]: Cc1ccc(NC(=O)c2ccc(CN3CC[C@H](N(C)C)C3)c(C(F)(F)F)c2)cc1Nc1nccc(-c2cncnc2)n1 [bafetinib]
The method, boiled down:
as §1

Compound in assay [10]: Cc1cccc(CC(=O)N2CCc3c2ccc(-c2cn(C)c4ncnc(N)c24)c3F)n1
The method, boiled down:
as §1

Compound in assay [11]: Cc1cn(-c2cc(NC(=O)c3ccc(C)c(Nc4nccc(-c5cccnc5)n4)c3)cc(C(F)(F)F)c2)cn1 [nilotinib]
Put shortly:
as §1

Compound in assay [12]: Cc1nc(Nc2n[nH]c3c2CN(C(=O)N[C@H](CN(C)C)c2ccccc2)C3(C)C)c2sccc2n1
The method, boiled down: as §1

Compound in assay [13]: Cc1nc(Nc2ncc(C(=O)Nc3c(C)cccc3Cl)s2)cc(N2CCN(CCO)CC2)n1 [dasatinib]
Put shortly: as §1

Compound in assay [14]: Cc1ncc(-c2ccnc(Nc3ccc(S(C)(=O)=O)cc3)n2)n1C(C)C
The method, boiled down: as §1

Compound in assay [15]: Cn1cc(-c2ccc3c(c2)CCN3C(=O)Cc2cccc(C(F)(F)F)c2)c2c(N)ncnc21
Put shortly: as §1

Compound in assay [16]: Cn1cc(CNCC2CCN(c3ncc(C(=O)NO)cn3)CC2)c2ccccc21 [quisinostat]
The method, boiled down: as §1

Compound in assay [17]: Cn1cncc1[C@@](N)(c1ccc(Cl)cc1)c1ccc2c(c1)c(-c1cccc(Cl)c1)cc(=O)n2C [tipifarnib]
Put shortly: as §1

Compound in assay [18]: NC(=O)Nc1cc(-c2cccc(F)c2)sc1C(=O)N[C@H]1CCCNC1
The method, boiled down:
as §1

Compound in assay [19]: NC(=O)c1cnc(N[C@@H]2CCCC[C@@H]2N)nc1Nc1cccc(-n2nccn2)c1
Put shortly: as §1

Compound in assay [20]: NC1(c2ccc(-c3nc4ccn5c(=O)[nH]nc5c4cc3-c3ccccc3)cc2)CCC1
The method, boiled down: as §1

Our source for the log2 fold change values is the supplement of paper PMC10849652.

Some of the results follow.

Take PNKP (UniProt Q96T60): the log2 fold change is inactive: -0.031 in [1]; inactive: -0.029 in assay [2]; inactive: -0.025 in assay [3]; inactive: -0.191 in assay [4]; inactive: -0.047 in assay [5]; inactive: 0.131 in [6]. Also, the log2 fold change in assay [7] is inactive: 0; in assay [8], inactive: 0.027; in assay [9] it was inactive: -0.103; in assay [10], inactive: 0.18; in assay [11] it was inactive: -0.004; in [12], inactive: 0.008. Moreover, the log2 fold change in assay [13] is inactive: -0.01; in [14] it was inactive: -0.058; in [15], inactive: 0.078; in assay [16] it was inactive: 0.016; in [17], inactive: -0.027; in assay [18], inactive: 0.007. The log2 fold change was inactive: 0.005 in assay [19] and inactive: -0.56 in assay [20].
On to POLR2L (UniProt P62875), for which the log2 fold change in [1] was inactive: 0.056; in assay [2] it was inactive: 0.081; in assay [3], inactive: -0.027; in [4], inactive: 0.117; in assay [5] it was inactive: -0.051; in assay [6], inactive: -0.105. The log2 fold change in assay [7] was inactive: -0.046; in assay [8], inactive: 0.037; in assay [9], inactive: -0.069; in assay [10] it was inactive: -0.028; in [11], inactive: 0.065; in assay [12] it was inactive: 0.097. For the same target, the log2 fold change in assay [13] was inactive: 0.031; in assay [14], inactive: -0.036; in [15] it was inactive: 0.055; in assay [16] it was inactive: 0.071; in assay [17], inactive: 0; in [18] it was inactive: -0.029. Also, the log2 fold change in assay [19] was inactive: -0.065; in assay [20], inactive: 0.144.
On to POLG (UniProt P54098), for which the log2 fold change in assay [1] is inactive: 0.127; in [2], inactive: -0.016; in [3], inactive: -0.143; in assay [4] it was inactive: -0.156; in assay [5], inactive: 0.077; in [6], inactive: 0.169. Moreover, the log2 fold change in assay [7] is inactive: 0.053; in assay [8] it was inactive: -0.137; in [9], inactive: 0.015; in [10], inactive: 0.253; in [11] it was inactive: -0.058; in assay [12] it was inactive: 0. The log2 fold change in [13] was inactive: 0.105; in assay [14] it was inactive: 0.019; in assay [15] it was inactive: -0.013; in assay [16] it was inactive: -0.277; in [17], inactive: -0.081; in [18] it was inactive: 0.016. Further, the log2 fold change is inactive: 0.116 in assay [19] and inactive: 0.166 in [20].
PPFIBP2 (UniProt Q8ND30): the log2 fold change was inactive: -0.049 in assay [4], inactive: 0.168 in assay [6], inactive: -0.13 in assay [7] and inactive: -0.15 in assay [10].
In the case of PNPLA4 (UniProt P41247), the log2 fold change was inactive: -0.098 in [3]; inactive: 0.121 in [4]; inactive: 0.021 in assay [5]; inactive: -0.019 in [6]; inactive: -0.011 in [7]; active: 0.825 in [8]. For the same target, the log2 fold change in assay [10] is inactive: -0.138; in [13], inactive: 0.099; in assay [15], inactive: 0.194; in assay [16], inactive: 0.048; in assay [18], inactive: 0.037.
For PLPP6 (UniProt Q8IY26), the log2 fold change in [3] is inactive: 0.028; in assay [4], inactive: 0.053; in assay [5], inactive: -0.028; in assay [6] it was inactive: -0.07; in assay [8], inactive: 0.04; in [10], inactive: 0.012. The log2 fold change is inactive: 0.128 in assay [11]; inactive: -0.164 in [12]; inactive: -0.022 in assay [13]; inactive: -0.143 in assay [14]; inactive: -0.104 in assay [15]; inactive: 0.049 in assay [16]. The log2 fold change was inactive: 0.062 in assay [17], inactive: 0.009 in assay [18] and inactive: -0.1 in [20].
